Some of the results follow.
What follows are molecules tested on T1, CTL2-GFP (C. trachomatis L2/434/Bu, GFP-expressing). Conditions: bulk GFP, single well; 28.5 h, 10 µM; inhibitor.
T1 construct: L2/434/Bu, GFP-expressing
Set-up: species or system HeLa; Intracellular C. trachomatis growth in HeLa cells, bulk GFP fluorescence relative to DMSO

Row | Structure (SMILES) | % of control remaining [%]
1 | Cc1ccc(SCc2ccc(C(=O)NCCN3CCOCC3)cc2)cc1 [CBK269314] | 153.825
2 | CN(CC(=O)Nc1cncc(OC2CCNCC2)n1)C(=O)c1ccccc1 [CBK028440T] | 110.053
3 | CCCCN(C)c1nccnc1-c1cccnc1 [CBK037631] | 171.867
4 | Cc1csc(CN(C)C(=O)c2cc3sccc3[nH]2)n1 [CBK304334] | 138.485
5 | CSc1ccccc1C(=O)NCCCn1ccnc1 [CBK269749] | 113.861
6 | Cc1cccc(N2C(=O)c3ccc(C(=O)OC(C(=O)c4ccccc4)c4ccccc4)cc3C2=O)c1 (stereo not drawn) [CBK265098] | 126.426
7 | O=C1C=CC2=C3Oc4c(ccc5cc(O)ccc45)C(c4ccccc4C(=O)O)C3C=CC2=C1 (stereo not drawn) [CBK278169N] | 100
8 | Cc1ccc(-n2cccn2)cc1S(=O)(=O)NCCN1CCCCC1CO (stereo not drawn) [CBK307163] | 76.7929
9 | CCn1cnc2cc(NC(=O)C3CC4C=CC3C43CC3)ccc21 (stereo not drawn) [CBK281384] | 135.736
10 | CCN(CC)CCOc1c(C)cc(Cl)cc1C [CBK262219] | 124.605
11 | O=C(c1n[nH]c2ccccc12)N1CCc2ccccc2C1 [CBK200330] | 105.104
12 | CC(C)c1ccc(S(=O)(=O)Nc2cccnc2)cc1 [CBK043884] | 68.8458
13 | O=C(CC[C@@H]1CNC(=O)[C@@H]2C[C@H](NC(=O)c3ccco3)CN12)Nc1ccccc1 [CBK289007] | 90.2284
14 | CC(O)(c1ccncc1)c1nccs1 (stereo not drawn) [CBK281504] | 135.113
15 | CCc1c(C)nc2ccccc2c1[S+]([O-])CCC(=O)OC (stereo not drawn) [CBK155467T] | 105.896
16 | Cc1cc(C)c(S(=O)(=O)Nc2ccccc2C(=O)NCc2ccco2)c(C)c1 [CBK266382] | 126.588
17 | CC1(C)Cc2nc3nc(SCC(=O)c4ccc(Br)cc4)n(-c4ccccc4)c(=O)c3cc2CO1 [CBK263310] | 114.78
18 | O=C(CCn1c(C(F)F)cc2cccnc21)NCC1CCCO1 (stereo not drawn) [CBK282165] | 125.53
19 | COc1cc(C2NC(=S)NC(c3ccccc3)=C2C(=O)c2ccccc2)cc(I)c1OCCO (stereo not drawn) [CBK267485] | 117.332
20 | COCC(=O)Nc1c[nH]nc1C1CCCN(c2cccc(F)c2C#N)C1 (stereo not drawn) [CBK305395] | 91.1638
21 | CC1CCN(C(=O)Cn2c(=O)n(C(C)C)c3ncccc32)CC1 [CBK283698] | 132.791

3 entries already listed, arranged by number of heavy atoms, descending.
Row | Structure (SMILES) | % of control remaining [%]
2 | CN(CC(=O)Nc1cncc(OC2CCNCC2)n1)C(=O)c1ccccc1 [CBK028440T] | 110.053
1 | Cc1ccc(SCc2ccc(C(=O)NCCN3CCOCC3)cc2)cc1 [CBK269314] | 153.825
10 | CCN(CC)CCOc1c(C)cc(Cl)cc1C [CBK262219] | 124.605

(list continues)

Row | Structure (SMILES) | % of control remaining [%]
22 | CCC(CO)Nc1nccnc1-c1ccc(CO)cc1 (stereo not drawn) [CBK036607] | 145
23 | Cc1cc(C)c(NC(=O)CSCc2cc(O)[nH]n2)c(Cl)c1 [CBK268302] | 133.562
24 | CC(NC(=O)CCc1cnn(C)c1)c1cccc(-n2ccnc2)c1 (stereo not drawn) [CBK306139] | 129.58
25 | COc1ccc(Nc2cc(-c3ccccc3OC)ncn2)cn1 [CBK037176] | 199.805
26 | COc1ccc(-c2cc(C(F)(F)F)nc(SCC(=O)N3CCN(C)CC3)n2)cc1OC [CBK266194] | 151.445
27 | CCOC(=O)CNS(=O)(=O)Cc1ccccc1[N+](=O)[O-] [CBK034439] | 111.276
28 | O=C(Nc1ccc(N2CCN(Cc3ccccc3)CC2)cc1)c1ccc(-c2ccccc2)cc1 [CBK268622] | 87.7187
29 | Cc1ccc(-n2ncc(C(=O)N3CCc4ccccc4C3)c2NC(=O)c2ccco2)cc1C [CBK267207] | 134.321
30 | O=C(O)CC1C(=O)NCCN1CCCc1ccccc1 (stereo not drawn) [CBK287176] | 86.7918
31 | CCCCSc1nc(N)cc(N2CCN3C(=O)CN(C)C(=O)C3C2)n1 (stereo not drawn) [CBK306940] | 132.81
32 | CCn1c(SCC(=O)Nc2cc(C)ccc2F)nnc1-c1ccccc1O [CBK269532] | 82.0267
33 | O=C(CN(c1ccccc1)S(=O)(=O)c1ccccc1[N+](=O)[O-])Nc1ccc(I)cc1 [CBK263755] | 89.2294
34 | O=[N+]([O-])c1ccc(S(=O)(=O)N2CCC3(CC2)OCCO3)cc1 [CBK269303] | 94.8142
35 | c1ccc(CN2CCN(Cc3ccccc3)C2c2ccc[nH]2)cc1 [CBK261283] | 100
36 | O=C(CN1CCOCC1)N/N=C/c1cc2ccccc2nc1Cl [CBK262732] | 132.562
37 | COCCN(Cc1cnn(C)c1)C(=O)Cc1coc2cc(C)c(Cl)cc12 [CBK307435] | 76.4931
38 | Cc1cc(-c2nccnc2N2CCN(CCN(C)C)CC2)cc(C)c1O [CBK037184] | 127.235
39 | COc1cccc(CC(=O)N2CCC[C@@H](N)[C@@H]2c2ccccc2F)c1 [CBK283455] | 172.994
40 | O=C(c1nc2ccccc2[nH]1)N1CCN(c2ccccc2)CC1 [CBK200167] | 102.105
41 | CC(NC(=O)CCC1CCCC1)c1nc(-c2ccncc2)cs1 (stereo not drawn) [CBK305819] | 135.436
42 | COc1cccc(CN2CCCC[C@H]3CN(C(C)=O)C[C@H]32)c1 [CBK285510] | 111.766

Row | Structure (SMILES) | % of control remaining [%]
43 | O=C(O)CNC(=O)c1ccccc1NC(=O)c1ccco1 [CBK286894] | 102.03
44 | O=C(Nc1nc(-c2cccs2)cs1)c1ccc(F)cc1 [CBK287327] | 90.2467
45 | Cc1ccnc(SCc2cc(=O)c3c(=O)n(-c4ccccc4)[nH]c3[nH]2)n1 [CBK269875] | 106.087
46 | O=C(NCC1(c2ccccc2)CCC1)C1CCCN(C(=O)c2ccoc2)C1 (stereo not drawn) [CBK296670] | 151.573
47 | Cc1cc(NC(=O)CN2CCOC(CNc3cccnn3)C2)on1 (stereo not drawn) [CBK305231] | 117.835
48 | COc1ccc2[nH]c(SCC(=O)Nc3ccc(Br)cc3)nc2c1 [CBK263447] | 112.03
49 | CC(=O)N1N=C(c2ccc3c(c2)OCO3)CC1c1ccc(C(=O)O)cc1 (stereo not drawn) [CBK286547] | 102.819
50 | O=S(=O)(Cc1cc(Cl)ccc1C(F)(F)F)c1cc2c(N3CCNCC3)nccc2s1 [CBK049960C] | 72.4191
51 | O=C(c1cccs1)N1CCC[C@@H]1Cn1c(=O)oc2ccccc21 [CBK284528] | 104.121
52 | O=S(=O)(NCCN1CCOCC1)c1ccc(Cl)c(Cl)c1Cl [CBK264973] | 129.955
53 | Cc1cc(C)c2nc(C(F)(F)F)nc(NCCCN3CCOCC3)c2c1 [CBK266753] | 93.8891
54 | Cc1ccn2c(=O)c(C(=O)NCc3cccnc3N3CCOCC3)cnc2c1 [CBK298316] | 107.926
55 | O=C(NC1CC(=O)N(CC(F)(F)F)C1)c1cnc(-c2ccncc2)s1 (stereo not drawn) [CBK305546] | 130.629
56 | Cc1nccn1CCC1CCN(C(=O)c2cnn(C)c2)CC1 [CBK281951] | 177.183
57 | CN(Cc1ccc2ncccc2c1)C(=O)CC1CCN(CCc2ccccc2)CC1 [CBK286261] | 89.5022
58 | CC1(C)Cc2c(oc(N)c2C#N)CO1 [CBK014395] | 115.892
59 | O=C(Cc1c[nH]c2ccccc12)NC(Cc1ccccc1)C(=O)O (stereo not drawn) [CBK286770] | 79.2459
60 | O=C(O)C1CCCN1S(=O)(=O)c1ccc([N+](=O)[O-])cc1 (stereo not drawn) [CBK261424] | 100
61 | O=S(=O)(c1ccc(Br)cc1C(F)(F)F)N1CCOCC1 [CBK062405] | 94.7112
62 | CC(C)n1c(=O)[nH]c2ccncc2c1=O [CBK015763] | 129.679
63 | CC(C)CCC(C)NC(=O)c1ccc(Oc2ccc(F)cc2)cc1 (stereo not drawn) [CBK295650] | 128.034

Row | Structure (SMILES) | % of control remaining [%]
64 | Nc1nonc1C(=O)NCCNCc1ccc(Cl)cc1 [CBK267194] | 142.284
65 | Nc1cc(O)nc(SCC(=O)N2CCN(c3ccccc3)CC2)n1 [CBK267925] | 117.976
66 | Cc1nn(-c2ccccc2)c2[nH]c(=O)c(CNC(C)C)cc12 [CBK282899] | 99.7296
67 | COc1ccc(C(=O)Nc2ccccc2N2CCN(C)CC2)cc1Cl [CBK268001] | 122.631
68 | Nc1c(-c2cc(F)cc(F)c2)cnc2ncccc12 [CBK083677] | 84.2517
69 | N#C/C(=N/Nc1ccc(Br)cc1)C1=NC(=O)CS1 [CBK018747] | 120.652
70 | O=C(COC(=O)c1ccncc1)c1ccc(OC(=O)c2ccccc2)cc1 [CBK265169] | 117.061
71 | COC(=O)Nc1ccccc1N1CCN(CCCCN2CCN(c3ccccc3)C2=O)CC1 [CBK024372C] | 100.793
72 | O=C(C1CCC1)N1CCC(n2c(=O)[nH]c3ccccc32)CC1 [CBK149709] | 113.037
73 | Clc1ccc(-c2cn(-c3cnc4ccccc4c3)nn2)cc1 [CBK113044] | 103.825
74 | COc1ncccc1C(=O)N1CCN(CCc2ccccc2)CC1 [CBK200226] | 64.4258
75 | CCc1ccccc1NC(=O)Cc1ccc(OC)cc1 [CBK087898] | 103.756
76 | Cc1ccccc1NC(=O)NCc1ccccc1F [CBK105832] | 105.319
77 | CN1CCN(C(=O)c2[nH]c3ccccc3c2NS(=O)(=O)c2cccc3cccnc23)CC1 [CBK050041] | 120.03
78 | CCC(CC)CNc1ncnc2ccc(S(C)(=O)=O)cc12 [CBK306495] | 91.9429
79 | COc1cccc([C@H]2CN(C(=O)c3ccccc3)[C@@H]3CCN(Cc4cccc(F)c4)C[C@H]23)c1 [CBK285626] | 89.9046
80 | CCOC(=O)c1cc2c(CNc3ccc(OC)nc3)cccc2o1 [CBK006086] | 100
81 | CC(C)(C)OC(=O)NCCc1ccc(Nc2cc(-c3cc4ccccc4s3)ncn2)cc1 [CBK090959] | 110.098

Source: paper PMC12040169 (PLOS Biology, 2025)
